Results taken from patent US8921424B2, “Histone deacetylase inhibitors, process for preparation and uses thereof” (Zhejiang Hisun Pharmaceutical Co. Ltd., priority 2007, dated 2014).
At least one structure is not confirmed: it was looked up by name or label, or the drawing left a doubt.

Test system: HDACs
Assay: In vitro HDACi assay (BIOMOL fluorescent-based HDAC activity assay)
Assay type: biochemical
Settings: Table 3
Protocol: In Vitro HDACi Assay for Determination of IC50 Values
The assay has been carried out in white 96 well formats according to the BIOMOL's method. […] The reaction mixture was incubated at room temperature for 2 hours. Flur de lys Developer was added and the reaction was incubated for 10 min. Briefly, deacetylation of the substrate sensitizes to the developer, which then generates a fluorophore. The fluorophore is excited with 360 nm light and the emitted light (460 nm) is detected on a fluorometric plate reader (Molecular Device Ultra Microplate detection system, MD Group Ltd).
The analytical software, Prism 4.0 (GraphPad Software Inc) has been used to generate IC50 from a series of data.

| Compound | IC50 [nM] |
| --- | --- |
| CCN(CC)CCSc1ccc(/C=C/C(=O)NO)cc1NS(=O)(=O)c1ccc(C)cc1 [Example 11, 3-(4-(2-(diethylamino)ethylthio)-3-(4-methylphenylsulfonamido)phenyl)-N-hydroxy-acrylamide] | > 100 |
| CCN(CC)CCSc1ccc(/C=C/C(=O)NO)cc1NC(=O)C(Cl)Cl [Example 13, 3-(3-(2,2-dichloroacetamido)-4-(2-(diethylamino)ethylthio)phenyl)-N-hydroxy-acrylamide] | 96 |
